PubChem BioAssay AID504793 | Drosophila RNAi Screening Center, 2011

Purpose: 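Knock-downs allowing continued mitosis even though DNA is damaged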 (primary screen)
System: Drosophila S2R+ cells
Knock-down reagent: long dsRNA against Drosophila genes, about 0.25 µg dsRNA per well
Timing: 4 days of dsRNA, then 4 hours of drug before read-out
Challenge: doxorubicin 0.5 µM for 4 hours to cause double-strand breaks, in cells also given a low, harmless dose of dsRNA against nbs to sensitise the assay
Measured: 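Per-well count of mitotic cells stained for phospho-histone H3 after doxorubicin exposure, used as mitotic index; counts are raw and not normalised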
Scale: mitotic cells: higher = more cells in mitosis, weaker G2 arrest
Rule for the call: 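a call needs confirmation in secondary tests, with other dsRNAs and a check of mitotic timing without damage, not just a high primary count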
Meaning of the calls: active = confirmed in follow-up tests; inactive = not confirmed
The screen tested about 23,000 reagents; below is a random part of those that have a named target and a result. Over the whole deposit, 62 (0.27%) were called active. 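Calls come from follow-up tests whose scores are not deposited, so confirmed genes may have low counts here; counts are not normalised per plate.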 The raw values are shown without normalisation. Names joined by + are all predicted targets of the reagent.

| Target gene | DRSC id | mitotic cells, replicate 1 | Outcome |
| --- | --- | --- | --- |
| Hdc | DRSC07439 | 7 | inactive |
| Hdc | DRSC25907 | 10 | inactive |
| Fbw5 | DRSC03146 | 5 | inactive |
| Fbw5 | DRSC29431 | 5 | inactive |
| CG32188 + CG32189 | DRSC28810 | 10 | inactive |
| Spec2 (retired record) | DRSC12258 | 2 | inactive |
| Spec2 (retired record) | DRSC22886 | 9 | inactive |
| dpr1 | DRSC06399 | 4 | inactive |
| trc | DRSC11406 | 3 | inactive |
| trc | DRSC29426 | 6 | inactive |
| Cad99C | DRSC15050 | 13 | inactive |
| Cad99C | DRSC16317 | 2 | inactive |
| CG17593 | DRSC00504 | 3 | inactive |
| CG17593 | DRSC27490 | 6 | inactive |
| kune | DRSC04860 | 5 | inactive |
| coro | DRSC05007 | 3 | inactive |
| coro | DRSC21417 | 16 | inactive |
| Ptpmeg | DRSC08684 | 3 | inactive |
| Ptpmeg | DRSC26348 | 8 | inactive |
| Dph1 | DRSC09851 | 5 | inactive |
| CG11837 | DRSC14397 | 5 | inactive |
| CG14507 | DRSC14859 | 13 | inactive |
| CG14507 | DRSC27958 | 10 | inactive |
| CG8534 | DRSC16439 | 10 | inactive |
| CG5567 | DRSC10517 | 6 | inactive |
| gem | DRSC06093 | 6 | inactive |
| gem | DRSC06847 | 11 | inactive |
| Dll | DRSC04610 | 5 | inactive |
| Dll | DRSC27225 | 8 | inactive |
| Spase25 | DRSC19776 | 9 | inactive |
| Tsp42Ea | DRSC04982 | 5 | inactive |
| Tsp42Ea | DRSC06792 | 2 | inactive |
| CG7914 | DRSC20068 | 10 | inactive |
| CG7914 | DRSC28931 | 4 | inactive |
| Pop2 | DRSC10537 | 18 | active |
| Pop2 | DRSC27971 | 8 | inactive |
| be | DRSC19607 | 7 | inactive |
| be | DRSC19944 | 11 | inactive |
| be | DRSC19945 | 11 | inactive |
| ema | DRSC14536 | 6 | inactive |
| Paip1 | DRSC07302 | 7 | inactive |
| Paip1 | DRSC23561 | 4 | inactive |
| CG18731 | DRSC15377 | 10 | inactive |
| dome | DRSC19583 | 4 | inactive |
| Orcokinin | DRSC04202 | 4 | inactive |
| CG6791 | DRSC16118 | 6 | inactive |
| CG6791 | DRSC29079 | 10 | inactive |
| MstProx + Mst84Da | DRSC12597 | 1 | inactive |
| Acsx3 | DRSC14309 | 4 | inactive |
| CG12713 | DRSC09900 | 6 | inactive |
| CG12713 | DRSC24697 | 2 | inactive |
| CG8814 | DRSC00707 | 2 | inactive |
| CG8814 | DRSC25994 | 7 | inactive |

Taken from above.
CG7914 [DRSC20068], mitotic cells, replicate 1: 10
CG8534 [DRSC16439], Outcome = inactive
Dll [DRSC04610], Outcome = inactive
Entry of coro [DRSC05007] in “Outcome”: inactive
Result of dpr1 [DRSC06399] under “Outcome”: inactive
Entry of CG11837 [DRSC14397] under “mitotic cells, replicate 1”: 5

The list goes on:
| Target gene | DRSC id | mitotic cells, replicate 1 | Outcome |
| --- | --- | --- | --- |
| side-IV + CG17025 (retired record) | DRSC15168 | 5 | inactive |
| CG17361 | DRSC23446 | 5 | inactive |
| TwdlO | DRSC16043 | 7 | inactive |
| CG16820 | DRSC02522 | 9 | inactive |
| LysP | DRSC08676 | 6 | inactive |
| LysP | DRSC25210 | 7 | inactive |
| CG12848 | DRSC04128 | 3 | inactive |
| CG5776 | DRSC02891 | 6 | inactive |
| Snmp1 | DRSC16168 | 8 | inactive |
| Proc | DRSC22998 | 9 | inactive |
| CG11808 | DRSC06088 | 7 | inactive |
| CG11808 | DRSC27380 | 6 | inactive |
| mey | DRSC14468 | 7 | inactive |
| mey | DRSC27364 | 10 | inactive |
| mRpS6 | DRSC08470 | 5 | inactive |
| mRpS6 | DRSC29280 | 3 | inactive |
| ZnT33D | DRSC02591 | 3 | inactive |
| GLS | DRSC07261 | 9 | inactive |
| GLS | DRSC25962 | 4 | inactive |
| Rbp1-like | DRSC19828 | 6 | inactive |
| Rbp1-like | DRSC22075 | 11 | inactive |
| Rbp1-like | DRSC25442 | 4 | inactive |
| CG14346 | DRSC00376 | 5 | inactive |
| CG14346 | DRSC27555 | 9 | inactive |
| CG5946 | DRSC10560 | 5 | inactive |
| pr | DRSC03596 | 6 | inactive |
| CG42390 | DRSC23064 | 20 | inactive |
| CG42390 | DRSC23065 | 14 | inactive |
| CG13471 | DRSC10015 | 8 | inactive |
| GXIVsPLA2 | DRSC10243 | 7 | inactive |
| GXIVsPLA2 | DRSC29361 | 5 | inactive |
| CG15708 | DRSC06579 | 8 | inactive |
| Nmda1 | DRSC07479 | 6 | inactive |
| Nmda1 | DRSC26357 | 5 | inactive |
| CG17190 | DRSC15184 | 9 | inactive |
| CG3611 | DRSC04395 | 8 | inactive |
| CG16756 | DRSC18115 | 12 | inactive |
| Poc1 | DRSC09713 | 2 | inactive |
| Poc1 | DRSC28330 | 3 | inactive |
| bai | DRSC14388 | 12 | inactive |
| CG15894 | DRSC18098 | 14 | inactive |
| CG14711 + Zaf1 | DRSC14934 | 4 | inactive |
| CG14711 + Zaf1 | DRSC23982 | 7 | inactive |
| PNUTS | DRSC00638 | 6 | inactive |
| PNUTS | DRSC23503 | 10 | inactive |
| CG13481 | DRSC10023 | 8 | inactive |
| CG13481 | DRSC29353 | 9 | inactive |
| CG34406 (retired record) | DRSC00523 | 7 | inactive |
| CG34406 (retired record) | DRSC00606 | 3 | inactive |
| CG34406 (retired record) | DRSC25843 | 6 | inactive |
| CG40298 | DRSC22274 | 10 | inactive |
| PGRP-SA | DRSC19420 | 10 | inactive |
| AGO2 | DRSC10847 | 5 | inactive |
| HBS1 | DRSC08544 | 9 | inactive |
| HBS1 | DRSC28426 | 7 | inactive |
| Acbp3 | DRSC11022 | – | inactive |
| Acbp3 | DRSC25356 | 4 | inactive |
